Data published in US20190380984A1, “COMPOSITION CONTAINING MELDONIUM DIHYDRATE FOR THE PREVENTION AND TREATMENT OF NEURODEGNERATIVE DISEASES” (priority 2018, published 2019).
“Also recorded” adds a separate entry of the source. At least one structure is not confirmed: it was looked up by name or label, or the drawing left a doubt.

Key:
[1] = tested on: rabbits with local brain lesions and ischemia; assay: local brain lesions and ischemia in rabbits; type: in vivo; conditions: 25 mg/kg i.v. daily during 14 days after induction of local brain lesions and ischemia
[2] = tested on: transgenic Alzheimer's disease mice; assay: transgenic Alzheimer's disease mice; type: in vivo; conditions: 50 mg/kg i.p. every day for 28 days
[3] = tested on: patients with ischemic stroke; assay: patients with ischemic stroke; type: in vivo, human; conditions: 10 mL of 5% solution intravenously once a day
[4] = tested on: patients with an early form of cerebral insufficiency and stage II-III encephalopathy; assay: patients with early form of cerebral insufficiency and stage II-III encephalopathy; type: in vivo, human; conditions: p.o.
[5] = tested on: patients with chronic cerebrovascular ischemia; assay: patients with chronic cerebrovascular ischemia; type: in vivo, human; conditions: 10% infusion solution, 10 mL, up to 10 days, then tablets 750 mg/day and antioxidants (20 g, oral) for 20 days
[6] = tested on: patients; assay: MDI in combination with antioxidant carotenoids in patients; type: in vivo, human; conditions: 250 mg intravenously twice a day for 10 days, with antioxidant carotenoids (20 mg)
[7] = tested on: blood serum lipoproteins; assay: resistance of blood serum lipoproteins to peroxidation, add-on therapy; type: in vivo; conditions: daily dose of 500 mg
[8] = tested on: patients with brain circulation disorders; assay: patients with brain circulation disorders; conditions: human, in vivo
[9] = tested on: trained rats; conditions: trained rats (Klusa et al., 2013); cited from earlier work

## C[N+](C)(C)NCCC(=O)[O-] [MDI, 3-(2,2,2-Trimethylhydrazinium)propionate dihydrate]
[1]
  restoration of cerebral blood flow and vascular reactivity: facilitated
[2]
  Ab plaque load in hippocampus: lowered
  cognitive performance: significantly improved
  social recognition: significantly improved
[3]
  cerebral hemodynamics: improved
[4]
  efficiency: increased
  headaches and asthenia: diminished
  patients' activity: became more active
[5]
  neurological symptoms, hemodynamic, electrophysiological, and neuropsychological characteristics: positive effect
[6]
  incidence of headaches, dizziness, vestibular dysfunction, and insomnia: decreased
  memory, attention, and cognition: improvement
[7]
  resistance of blood serum lipoproteins to peroxidation: increased
[8]
  patients' mood: improved
[8]; dihydrate
  asthenia, dizziness and nausea: became less pronounced; also recorded: become less pronounced
  motor dysfunction: decreases
  patients' activity: became more active; also recorded: become more active
[9]
  learning and memory: learning- and memory-enhancing properties
